Test results from paper PMC11323322.
For part of these data: A weaker result is weaker than the reference pair of the same experiment. For part of these data: For at least one entry, the source does not settle the construct or the ends of the probe.

The chains behind the UniProt entries cited, without tags or fusion partners. Residues count along the entry.
UniProt P08887, 20-355: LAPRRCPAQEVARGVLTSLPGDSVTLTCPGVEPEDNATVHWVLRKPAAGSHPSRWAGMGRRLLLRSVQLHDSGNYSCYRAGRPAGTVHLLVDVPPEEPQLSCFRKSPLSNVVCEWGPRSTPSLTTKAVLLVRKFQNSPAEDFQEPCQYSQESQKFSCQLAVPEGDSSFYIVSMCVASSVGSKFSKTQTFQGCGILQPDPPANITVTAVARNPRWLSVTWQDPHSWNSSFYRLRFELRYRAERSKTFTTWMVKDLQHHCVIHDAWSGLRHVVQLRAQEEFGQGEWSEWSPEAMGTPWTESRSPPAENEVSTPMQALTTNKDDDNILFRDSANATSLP
UniProt P05231, 30-212: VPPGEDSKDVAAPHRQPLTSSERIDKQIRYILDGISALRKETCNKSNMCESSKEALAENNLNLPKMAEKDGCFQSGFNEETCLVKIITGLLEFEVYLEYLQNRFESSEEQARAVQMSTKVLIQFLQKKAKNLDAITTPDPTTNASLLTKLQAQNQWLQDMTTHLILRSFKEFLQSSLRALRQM

Legend:
[1] = biological target: sIL-6R (soluble IL-6 receptor alpha) (human) (UniProt P08887); assay: MST; conditions: DNA version of RNA aptamer; 1x PBSMT pH 7.2: 137 mM NaCl, 2.68 mM KCl, 8.1 mM Na2HPO4, 1.76 mM KH2PO4, 1 mM MgCl2, 0.025% Tween-20; pull-down 1 h (room temperature in SELEX); MST at 25 C; commercial protein; folded or branched DNA
[2] = biological target: IL-6 (interleukin-6) (human) (UniProt P05231); assay: MST; conditions: lower affinity than CIL-6A6-1; 1x PBSMT pH 7.2: 137 mM NaCl, 2.68 mM KCl, 8.1 mM Na2HPO4, 1.76 mM KH2PO4, 1 mM MgCl2, 0.025% Tween-20; pull-down 1 h (room temperature in SELEX); MST at 25 C; commercial protein; single-stranded DNA
[3] = biological target: sIL-6R (soluble IL-6 receptor alpha) (human) (UniProt P08887); assay: pull-down, real-time PCR; conditions: circular; 1x PBSMT pH 7.2: 137 mM NaCl, 2.68 mM KCl, 8.1 mM Na2HPO4, 1.76 mM KH2PO4, 1 mM MgCl2, 0.025% Tween-20; pull-down 1 h (room temperature in SELEX); commercial protein; single-stranded DNA

## GGGGAGGCTGTGGTGAGGG [AIR-3A DNA counterpart]
[1]
  Kd: 131 nM

## CTTCCAACGCTCGTATTGTCAGTCTTTAGT [IL62]
[2]
  binding result: binds more weakly

## ATCTCGACTATTTTTTTTTTTTTTTTTTTTGGGGAGGCTGTGGTGAGGGTTTTTTTTTTTTTTTTTTTTTGTCTCGGAT [CIL-6A-R]
[3]
  binding result: binds more weakly
